Here are results for 14 compounds from PubChem BioAssay AID270 (DTP/NCI, 2004).

The list shows only some results of the screen, not a fair sample: it is rich in T/C values a quarter to a half above the control, in often repeated tests (any T/C) and in doses without a T/C. Other doses and runs of a compound stand elsewhere. T/C gives the treated animals as a percentage of the vehicle group. Schedules are NCI's codes, read here as Q, the interval in days (D) or hours (H), X, the number of doses. Some doses have a count of surviving animals in place of a T/C: the source files T/C as zero there, which appears to mark a toxic dose or a test without result, not a measured value. Some doses without a T/C left all or most animals alive at the check, yet need not have been tolerated: the source hardly ever lists a survival T/C far under the control, and the zero likely stands for such cases as well. Counts of survivors are from the toxicity check (mostly the fifth day) where no day follows; animals may have died later. Some doses were run more than once; the values are given in rising order. Where survival is the endpoint, the PubChem record calls one and a half times the control and up active, and a quarter to a half above the control has no call in these data; cut-offs in other NCI protocols can differ. Some T/C values are followed by the survivors on the day toxicity was checked, most often the fifth; without a count, all were alive then. *1 amine or outer side, *2 acyl side, *3 side chain or, on linkers, in order; H or OH if unused. Where a SMILES comes first, the peptide text is derived from it. Bridges are numbered along the chain shown (N, C = ends). Roman numbers before positions name the chains, in order. [ ]: non-standard residue; d: D form. Actinocin(1to9) = Cc1c2oc3c(C)ccc(C(=O)[*:2])c3nc-2c(C(=O)[*:1])c(N)c1=O; Actinocin(9to1) = Cc1c2oc3c(C)ccc(C(=O)[*:1])c3nc-2c(C(=O)[*:2])c(N)c1=O; X1 = O=C1CC(C(=O)[*:2])N([*:1])C1; aThr = C[C@H](O)[C@H](N)C(=O)O; NMeV = CN[CH](C(=O)O)C(C)C; Sar = CNCC(=O)O

For the assay, the system named is BDF1 mice, s.c. Lewis lung carcinoma, T/C %. As to the kind of experiment: NCI In Vivo Anticancer Drug Screen. Data for tumor model Lewis Lung Carcinoma (subcutaneous) in B6D2F1 (BDF1) mice. The method, boiled down: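 Tumor-bearing mice were treated with test compound, and either survival or tumor size was recorded. Values are the treated-group measurement divided by that of the vehicle-treated control group.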

The mark [1] stands for this setting: T/C endpoint: median survival time, dose: 50.0 micrograms/kg/injection, schedule: Q01DX009 (ip), vehicle: saline, higher T/C = longer survival.
Where [2] appears, read: T/C endpoint: median survival time, dose: 100.0 micrograms/kg/injection, schedule: Q01DX009 (ip), vehicle: saline, higher T/C = longer survival.
Where [3] appears, read: T/C endpoint: median survival time, dose: 6.0 mg/kg/injection, schedule: Q01DX009 (ip), vehicle: saline with Tween-80, higher T/C = longer survival.

On to `C=C1C(=O)O[C@H]2C=C(C)[C@H]3[C@@H](OC(C)=O)C[C@@](C)(O)[C@@H]3C[C@H]12`, for which the survivor count is given as 0 of 4 (T/C endpoint: mean tumor weight, dose: 50.0 mg/kg/injection, schedule: Q01DX011 (ip), vehicle: carboxymethylcellulose (CMC), higher T/C = larger tumour); 0 of 4 (T/C endpoint: mean tumor weight, dose: 100.0 mg/kg/injection, schedule: Q01DX011 (ip), vehicle: carboxymethylcellulose (CMC), higher T/C = larger tumour); 0 of 4 (T/C endpoint: mean tumor weight, dose: 200.0 mg/kg/injection, schedule: Q01DX011 (ip), vehicle: carboxymethylcellulose (CMC), higher T/C = larger tumour).
For `CC1=CC2=C(C=O)C(=O)[C@](C)(O)[C@@H](O)C2=CO1`, the survivor count runs as follows: (T/C endpoint: median survival time, dose: 12.5 mg/kg/injection, schedule: Q01DX009 (ip), vehicle: saline with Tween-80, higher T/C = longer survival) 9 of 10; (T/C endpoint: median survival time, dose: 50.0 mg/kg/injection, schedule: Q01DX009 (ip), vehicle: saline with Tween-80, higher T/C = longer survival) 10 of 10; (T/C endpoint: median survival time, dose: 100.0 mg/kg/injection, schedule: Q01DX009 (ip), vehicle: saline with Tween-80, higher T/C = longer survival) 9 of 10.
As to `Cc1c2oc3c(C)ccc(C(=O)NC4C(=O)NC(C(C)C)C(=O)N5CCCC5C(=O)N(C)CC(=O)N(C)C(C(C)C)C(=O)OC4C)c3nc-2c(C(=O)NC2C(=O)NC(C(C)C)C(=O)N3CC(=O)CC3C(=O)N(C)CC(=O)N(C)C(C(C)C)C(=O)OC2C)c(N)c1=O` (configuration not stated) (I: TV[X1][Sar][NMeV] / II: TVP[Sar][NMeV]; ester I:1-I:C, II:1-II:C; linker I:N-II:N via Actinocin(1to9); configuration not given here), the survivor count runs as follows: (T/C endpoint: median survival time, dose: 25.0 micrograms/kg/injection, schedule: Q01DX009 (ip), vehicle: water, higher T/C = longer survival) 10 of 10; (T/C endpoint: median survival time, dose: 50.0 micrograms/kg/injection, schedule: Q01DX009 (ip), vehicle: water, higher T/C = longer survival) 8 of 10; (T/C endpoint: median survival time, dose: 75.0 micrograms/kg/injection, schedule: Q04DX003 (ip), vehicle: water, higher T/C = longer survival) 10 of 10; (T/C endpoint: median survival time, dose: 150.0 micrograms/kg/injection, schedule: Q04DX003 (ip), vehicle: water, higher T/C = longer survival) 10 of 10.
`O=C(O)c1c2c(nc3ccccc13)Cc1ccccc1-2`: where the note is “T/C endpoint: median survival time, dose: 300.0 mg/kg/injection, schedule: Q01DX009 (ip), vehicle: Klucel (hydroxypropylcellulose) (HPC), higher T/C = longer survival”, the survivor count is 4 of 10.
As to `Cc1c2oc3c(C)ccc(C(=O)N[C@@H]4C(=O)N[C@H](C(C)C)C(=O)N5CCC[C@H]5C(=O)N(C)CC(=O)N(C)[C@@H](C(C)C)C(=O)O[C@H]4C)c3nc-2c(C(=O)N[C@@H]2C(=O)N[C@H](C(C)C)C(=O)N3CCC[C@H]3C(=O)N(C)CC(=O)N(C)[C@@H](C(C)C)C(=O)O[C@H]2C)c(N)c1=O` (I: [aThr][dV]P[Sar][NMeV] / II: [aThr][dV]P[Sar][NMeV]; ester I:1-I:C, II:1-II:C; linker I:N-II:N via Actinocin(9to1)), the survivor count was 2 of 10 (T/C endpoint: mean tumor weight, dose: 0.08 mg/kg/injection, schedule: Q01DX011 (ip), vehicle: saline, higher T/C = larger tumour); 10 of 10 and 9 of 9 under setting [1]; 9 of 10 and 9 of 9 under setting [2]; 9 of 10 (T/C endpoint: median survival time, dose: 100.0 micrograms/kg/injection, schedule: Q01DX009 (ip), vehicle: water, higher T/C = longer survival); 9 of 10 (T/C endpoint: median survival time, dose: 200.0 micrograms/kg/injection, schedule: Q01DX009 (ip), vehicle: saline, higher T/C = longer survival); 10 of 10 (T/C endpoint: median survival time, dose: 200.0 micrograms/kg/injection, schedule: Q01DX009 (ip), vehicle: water, higher T/C = longer survival). The survivor count runs as follows: (T/C endpoint: median survival time, dose: 300.0 micrograms/kg/injection, schedule: Q04DX003 (ip), vehicle: water, higher T/C = longer survival) 10 of 10; (T/C endpoint: median survival time, dose: 400.0 micrograms/kg/injection, schedule: Q01DX009 (ip), vehicle: saline, higher T/C = longer survival) 1 of 10; (T/C endpoint: median survival time, dose: 600.0 micrograms/kg/injection, schedule: Q04DX003 (ip), vehicle: water, higher T/C = longer survival) 10 of 10; (T/C endpoint: median survival time, dose: 1200.0 micrograms/kg/injection, schedule: Q04DX003 (ip), vehicle: water, higher T/C = longer survival) 10 of 10. Moreover, the T/C runs as follows: (T/C endpoint: median survival time, dose: 25.0 micrograms/kg/injection, schedule: Q01DX009 (ip), vehicle: saline, higher T/C = longer survival) 87, 111, 114, 120 [9 of 10 alive], 132, 145 % of control; under setting [1], 100, 109, 112 % of control; under setting [2], 109, 120, 132 % of control.
On to `CN(C)c1ccc(C(N)=O)cn1`, for which the survivor count (T/C endpoint: mean tumor weight, dose: 12.0 mg/kg/injection, schedule: Q01DX011 (ip), vehicle: saline, higher T/C = larger tumour) is 2 of 6.
For the compound `O=C(O)c1ccc(-c2ccccc2)cc1`, the survivor count is 0 of 6 (T/C endpoint: mean tumor weight, dose: 300.0 mg/kg/injection, schedule: Q01DX011 (ip), vehicle: carboxymethylcellulose (CMC), higher T/C = larger tumour) and 0 of 6 (T/C endpoint: mean tumor weight, dose: 450.0 mg/kg/injection, schedule: Q01DX011 (ip), vehicle: carboxymethylcellulose (CMC), higher T/C = larger tumour).
Turning to `Cc1cccc(NC(=O)N(CCCl)N=O)c1`, the T/C reads like this: (T/C endpoint: median survival time, dose: 3.0 mg/kg/injection, schedule: Q01DX009 (ip), vehicle: saline with Tween-80, higher T/C = longer survival) 142 % of control; under setting [3], 143 % of control. The survivor count is given as 10 of 10 under setting [3] and 9 of 10 (T/C endpoint: median survival time, dose: 12.0 mg/kg/injection, schedule: Q01DX009 (ip), vehicle: saline with Tween-80, higher T/C = longer survival).
Regarding `OC1c2cc(Cl)ccc2-c2c(Cl)cc(Cl)cc21` (configuration not stated), for the setting “T/C endpoint: mean tumor weight, dose: 250.0 mg/kg/injection, schedule: Q01DX011 (ip), vehicle: carboxymethylcellulose (CMC), higher T/C = larger tumour”, the survivor count is 2 of 6.
Consider `Oc1c(Cl)cc(Cl)cc1/C=N/NC(=S)Nc1cc(C(F)(F)F)cc(C(F)(F)F)c1`, for which the survivor count by setting is: (T/C endpoint: median survival time, dose: 6.25 mg/kg/injection, schedule: Q01DX009 (ip), vehicle: olive oil, sesame oil, peanut oil, higher T/C = longer survival) 10 of 10; (T/C endpoint: median survival time, dose: 25.0 mg/kg/injection, schedule: Q01DX009 (ip), vehicle: olive oil, sesame oil, peanut oil, higher T/C = longer survival) 10 of 10; (T/C endpoint: median survival time, dose: 50.0 mg/kg/injection, schedule: Q01DX009 (ip), vehicle: olive oil, sesame oil, peanut oil, higher T/C = longer survival) 9 of 10; (T/C endpoint: median survival time, dose: 100.0 mg/kg/injection, schedule: Q01DX009 (ip), vehicle: olive oil, sesame oil, peanut oil, higher T/C = longer survival) 10 of 10.
Take `O=[N+]([O-])c1ccc2c(N=Nc3c(O)ccc4ccccc34)c(O)cc(S(=O)(=O)O)c2c1`: the survivor count reads like this: (T/C endpoint: mean tumor weight, dose: 400.0 mg/kg/injection, schedule: Q01DX011 (ip), vehicle: saline, higher T/C = larger tumour) 0 of 6; (T/C endpoint: mean tumor weight, dose: 600.0 mg/kg/injection, schedule: Q01DX011 (ip), vehicle: saline, higher T/C = larger tumour) 0 of 6; (T/C endpoint: median survival time, dose: 400.0 mg/kg/injection, schedule: Q01DX009 (ip), vehicle: saline, higher T/C = longer survival) 5 of 10.
On to `COc1cc(C2c3cc4c(cc3CC3COC(=O)C32)OCO4)cc(OC)c1O` (configuration not stated), for which the survivor count (T/C endpoint: median survival time, dose: 4.0 mg/kg/injection, schedule: Q01DX009 (ip), vehicle: saline with Tween-80, higher T/C = longer survival) was 10 of 10.
Regarding `c1ccc(C2=C(c3ccccc3)C(c3ccccc3)=C(c3ccccc3)C2)cc1`, the T/C (T/C endpoint: mean tumor weight, dose: 500.0 mg/kg/injection, schedule: Q01DX011 (ip), vehicle: other, evaluated on day 12, higher T/C = larger tumour) is 146 % of control.
For the compound `Cc1cc(N)c2cc(NC(=O)CCCCCCCCC(=O)Nc3ccc4nc(C)cc(N)c4c3)ccc2n1`, where the note is “T/C endpoint: mean tumor weight, dose: 25.0 mg/kg/injection, schedule: Q01DX011 (ip), vehicle: other, evaluated on day 12, higher T/C = larger tumour”, the T/C was 130 % of control. Also, the survivor count runs as follows: (T/C endpoint: median survival time, dose: 0.38 mg/kg/injection, schedule: Q01DX009 (ip), vehicle: Klucel (hydroxypropylcellulose) (HPC), higher T/C = longer survival) 9 of 10; (T/C endpoint: median survival time, dose: 1.56 mg/kg/injection, schedule: Q01DX009 (ip), vehicle: Klucel (hydroxypropylcellulose) (HPC), higher T/C = longer survival) 10 of 10; (T/C endpoint: median survival time, dose: 50.0 mg/kg/injection, schedule: Q01DX009 (ip), vehicle: Klucel (hydroxypropylcellulose) (HPC), higher T/C = longer survival) 10 of 10; (T/C endpoint: median survival time, dose: 200.0 mg/kg/injection, schedule: Q01DX009 (ip), vehicle: Klucel (hydroxypropylcellulose) (HPC), higher T/C = longer survival) 1 of 10; (T/C endpoint: median survival time, dose: 400.0 mg/kg/injection, schedule: Q01DX009 (ip), vehicle: Klucel (hydroxypropylcellulose) (HPC), higher T/C = longer survival) 0 of 10.
